# Results of single-concentration screens

By UniProt entry, the sequences of proteins in these tests, tags left out. Residues count along the entry.
UniProt P9WPC5, whole entry: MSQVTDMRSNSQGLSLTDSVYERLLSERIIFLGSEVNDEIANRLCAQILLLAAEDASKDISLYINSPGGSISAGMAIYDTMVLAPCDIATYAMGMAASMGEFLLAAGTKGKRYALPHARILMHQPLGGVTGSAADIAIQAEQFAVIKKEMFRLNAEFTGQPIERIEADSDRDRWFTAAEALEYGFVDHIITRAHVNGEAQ
UniProt P9WPC3, whole entry partner: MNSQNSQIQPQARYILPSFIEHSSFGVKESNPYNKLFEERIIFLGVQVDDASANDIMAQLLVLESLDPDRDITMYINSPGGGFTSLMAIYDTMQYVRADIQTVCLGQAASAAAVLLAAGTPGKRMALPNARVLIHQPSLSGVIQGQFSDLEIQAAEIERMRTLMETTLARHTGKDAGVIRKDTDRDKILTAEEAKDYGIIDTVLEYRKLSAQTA
UniProt P9WNZ1, whole entry: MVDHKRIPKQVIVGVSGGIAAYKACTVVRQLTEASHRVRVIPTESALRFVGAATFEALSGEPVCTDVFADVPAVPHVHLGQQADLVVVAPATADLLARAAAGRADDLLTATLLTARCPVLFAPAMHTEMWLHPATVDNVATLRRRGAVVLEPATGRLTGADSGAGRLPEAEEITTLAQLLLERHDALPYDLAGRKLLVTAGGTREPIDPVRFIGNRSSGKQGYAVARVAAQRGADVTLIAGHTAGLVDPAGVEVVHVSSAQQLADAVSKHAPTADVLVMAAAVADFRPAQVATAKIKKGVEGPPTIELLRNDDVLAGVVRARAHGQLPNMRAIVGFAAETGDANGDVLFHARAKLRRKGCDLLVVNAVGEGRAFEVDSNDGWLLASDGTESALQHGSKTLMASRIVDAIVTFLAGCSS
UniProt Q8IDJ8, 1-583: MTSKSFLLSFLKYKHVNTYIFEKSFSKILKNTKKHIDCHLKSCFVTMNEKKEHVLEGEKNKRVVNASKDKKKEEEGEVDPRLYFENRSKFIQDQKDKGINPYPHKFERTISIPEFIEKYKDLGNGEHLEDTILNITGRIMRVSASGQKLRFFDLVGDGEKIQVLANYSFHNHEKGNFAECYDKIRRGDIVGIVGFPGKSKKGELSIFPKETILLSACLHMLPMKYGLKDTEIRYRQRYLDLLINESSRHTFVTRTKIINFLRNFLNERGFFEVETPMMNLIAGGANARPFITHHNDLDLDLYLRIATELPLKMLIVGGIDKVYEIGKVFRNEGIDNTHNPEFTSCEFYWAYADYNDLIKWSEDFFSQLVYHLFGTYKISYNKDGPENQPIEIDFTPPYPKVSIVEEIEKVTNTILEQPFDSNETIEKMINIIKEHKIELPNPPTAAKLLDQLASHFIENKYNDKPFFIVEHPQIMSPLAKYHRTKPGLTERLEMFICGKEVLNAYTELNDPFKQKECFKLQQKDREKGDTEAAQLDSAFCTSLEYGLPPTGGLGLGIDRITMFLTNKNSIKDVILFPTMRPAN
UniProt Q4DA54, 1-478: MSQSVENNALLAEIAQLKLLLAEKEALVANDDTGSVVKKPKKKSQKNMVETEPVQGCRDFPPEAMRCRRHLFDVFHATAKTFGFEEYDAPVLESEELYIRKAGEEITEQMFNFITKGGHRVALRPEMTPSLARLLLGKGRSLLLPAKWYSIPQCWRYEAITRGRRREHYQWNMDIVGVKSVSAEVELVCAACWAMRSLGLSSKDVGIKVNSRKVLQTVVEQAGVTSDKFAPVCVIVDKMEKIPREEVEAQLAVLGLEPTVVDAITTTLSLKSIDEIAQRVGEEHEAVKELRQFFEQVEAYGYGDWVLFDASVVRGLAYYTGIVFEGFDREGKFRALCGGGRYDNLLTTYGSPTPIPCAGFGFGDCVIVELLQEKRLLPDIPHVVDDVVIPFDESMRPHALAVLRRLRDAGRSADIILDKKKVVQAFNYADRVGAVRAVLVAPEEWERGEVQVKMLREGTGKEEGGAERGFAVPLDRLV
UniProt I6X8D2, whole entry: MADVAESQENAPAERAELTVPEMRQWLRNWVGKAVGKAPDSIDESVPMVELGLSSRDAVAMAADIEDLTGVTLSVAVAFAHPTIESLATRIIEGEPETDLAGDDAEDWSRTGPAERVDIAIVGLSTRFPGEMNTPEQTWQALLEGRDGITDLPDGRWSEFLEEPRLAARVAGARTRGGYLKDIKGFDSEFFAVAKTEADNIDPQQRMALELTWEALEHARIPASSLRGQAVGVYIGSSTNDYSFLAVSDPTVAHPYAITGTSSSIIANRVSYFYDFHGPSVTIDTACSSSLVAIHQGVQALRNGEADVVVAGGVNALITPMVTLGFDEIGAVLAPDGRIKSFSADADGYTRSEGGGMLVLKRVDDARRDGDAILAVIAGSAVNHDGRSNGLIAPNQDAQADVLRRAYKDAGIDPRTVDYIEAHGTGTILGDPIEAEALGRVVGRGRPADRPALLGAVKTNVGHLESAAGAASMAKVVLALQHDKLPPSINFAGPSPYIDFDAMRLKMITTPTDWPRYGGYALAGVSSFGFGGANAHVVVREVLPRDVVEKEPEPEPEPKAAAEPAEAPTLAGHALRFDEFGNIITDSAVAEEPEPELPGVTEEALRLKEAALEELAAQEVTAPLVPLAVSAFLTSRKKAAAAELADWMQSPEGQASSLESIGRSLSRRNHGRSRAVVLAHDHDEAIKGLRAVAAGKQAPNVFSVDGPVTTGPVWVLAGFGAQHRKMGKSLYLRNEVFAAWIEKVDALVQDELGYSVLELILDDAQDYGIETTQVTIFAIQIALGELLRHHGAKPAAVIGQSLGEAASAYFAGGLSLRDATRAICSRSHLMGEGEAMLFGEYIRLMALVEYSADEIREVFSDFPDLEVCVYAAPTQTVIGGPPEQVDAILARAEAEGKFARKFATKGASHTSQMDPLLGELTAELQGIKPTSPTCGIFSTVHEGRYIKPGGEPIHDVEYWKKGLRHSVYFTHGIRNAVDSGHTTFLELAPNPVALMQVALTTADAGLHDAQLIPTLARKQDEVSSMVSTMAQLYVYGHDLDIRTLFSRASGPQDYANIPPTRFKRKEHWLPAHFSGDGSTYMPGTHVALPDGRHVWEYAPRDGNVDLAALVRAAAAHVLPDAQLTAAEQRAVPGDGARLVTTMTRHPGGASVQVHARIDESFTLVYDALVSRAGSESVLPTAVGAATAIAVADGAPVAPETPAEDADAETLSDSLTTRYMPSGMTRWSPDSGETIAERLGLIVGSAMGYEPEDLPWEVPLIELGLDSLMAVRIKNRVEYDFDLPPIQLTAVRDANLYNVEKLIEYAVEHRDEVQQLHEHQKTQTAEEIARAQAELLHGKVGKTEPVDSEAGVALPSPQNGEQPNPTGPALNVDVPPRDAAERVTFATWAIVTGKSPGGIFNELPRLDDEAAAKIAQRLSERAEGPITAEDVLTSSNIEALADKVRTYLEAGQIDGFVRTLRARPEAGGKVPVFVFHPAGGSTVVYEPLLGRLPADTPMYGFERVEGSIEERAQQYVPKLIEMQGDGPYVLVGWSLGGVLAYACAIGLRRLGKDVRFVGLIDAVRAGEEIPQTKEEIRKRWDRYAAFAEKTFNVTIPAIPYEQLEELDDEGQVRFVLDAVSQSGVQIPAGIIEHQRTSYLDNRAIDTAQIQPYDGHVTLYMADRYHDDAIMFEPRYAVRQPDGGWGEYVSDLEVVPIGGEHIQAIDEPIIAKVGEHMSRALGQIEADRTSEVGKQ

ClpP1P2: 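ClpP1P2, Mycobacterium tuberculosis (UniProt P9WPC5 and UniProt P9WPC3). Protease assay of ClpP1P2, read by the AMC dye that it sets free. Concentration: 50 µM. Higher reads as stronger inhibition, judged from the few compounds that gave an IC50. Most other retested compounds had strongly negative values. Of about 69,000 compounds tested this way, about 10 (0.015%) reached 50% or more in at least one test.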
CoaBC: 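Enzyme assay of CoaBC with a phosphate dye (Biomol Green) read at 650 nm. Target: Coenzyme A biosynthesis protein CoaBC, Mycobacterium tuberculosis (UniProt P9WNZ1). Concentration: 30 µM. Direction is inferred from only a few compounds that gave an IC50; most scored high, so higher reads as stronger inhibition. Most strong results did not repeat in a second test. About 67,000 compounds were tested under these conditions; 0.06% (about 40) showed 50% or more at least once.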
PfKRS1: 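Enzyme assay of the cytosolic lysyl-tRNA synthetase in 384-well plates, read by luminescence. Target: Lysine-tRNA ligase, Plasmodium falciparum 3D7 (UniProt Q8IDJ8). Compounds at 30 µM. Direction is inferred from only a few compounds that gave an IC50; most scored high, so higher reads as stronger inhibition. Of about 69,000 compounds tested this way, about 49 (0.071%) reached 50% or more in at least one test.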
TcHisRS: 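Histidine-tRNA ligase, Trypanosoma cruzi CL Brener (UniProt Q4DA54). Enzyme assay of histidyl-tRNA synthetase; the read-out is not stated. Compounds at 30 µM. Direction is inferred from retests: higher values go with stronger inhibition. Size under these conditions: about 69,000 compounds, about 31 of them at 50% or above in at least one test.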
Pks13 thioesterase: 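Polyketide synthase Pks13, Mycobacterium tuberculosis (UniProt I6X8D2). Enzyme assay of the thioesterase domain of polyketide synthase 13; the read-out is not stated. Tested at 30 µM. Higher reads as stronger inhibition (inferred from which compounds were picked for retests). Size under these conditions: about 67,000 compounds, about 300 of them at 50% or above in at least one test.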

Each number is a percent effect as filed. The record does not define 0% and 100%; most values in the screen are far below 50% and negative numbers occur (in some assays of this library far below -100). Compounds were drawn at random from those tested, without regard to their results.

compound: CC(C(=O)NCc1ccnc(OC2CCCC2)c1)n1cncn1 (stereo unspecified)
ClpP1P2: 4.875
CoaBC: 2.244
PfKRS1: 4.162
TcHisRS: 4.926
Pks13 thioesterase: -52.3

compound: CCOC(=O)N1CCN(CC(=O)Nc2nnc(CC)s2)CC1
ClpP1P2: -4.265
CoaBC: -2.314
PfKRS1: -1.379
TcHisRS: 2.235
Pks13 thioesterase: -21.22

compound: CC(=O)NCC(=O)NCC1(O)CCN(c2cnccn2)C1 (stereo unspecified)
ClpP1P2: -3.948
CoaBC: -4.785
PfKRS1: -1.039
TcHisRS: 6.513
Pks13 thioesterase: -1.875

compound: Cn1ccc(C(=O)NCc2cccc(NC(=O)C3CCC3)c2)cc1=O
ClpP1P2: -6.978
CoaBC: -0.527
PfKRS1: 4.628
TcHisRS: 1.901
Pks13 thioesterase: 107.4

compound: CCc1cc(=O)[nH]c(SCc2ccccn2)n1
ClpP1P2: 0.9557
CoaBC: 1.695
PfKRS1: -1.413
TcHisRS: 11
Pks13 thioesterase: -9.027

compound: Cn1cnc2c1CCN(CCOc1ccc(C#N)cc1)C2
ClpP1P2: -21.94
CoaBC: -3.636
PfKRS1: -0.8998
TcHisRS: 4.035
Pks13 thioesterase: -12.99

compound: CC(NCC(N)=O)c1c(F)cccc1Cl (stereo unspecified)
ClpP1P2: -4.665
CoaBC: -0.8963
PfKRS1: 4.443
TcHisRS: 6.748
Pks13 thioesterase: -1.506

compound: COC(=O)C(NC(=O)c1ccc(N(C)C)nc1)c1ccccc1 (stereo unspecified)
ClpP1P2: 6.127
CoaBC: 5.159
PfKRS1: 4.977
TcHisRS: 5.172
Pks13 thioesterase: -17.76

compound: CC(C)(C)c1csc(CNC(=O)C2NCCc3[nH]cnc32)n1 (stereo unspecified)
ClpP1P2: -25.07
CoaBC: 3.106
PfKRS1: 5.831
TcHisRS: -0.9662
Pks13 thioesterase: 8.305

compound: CC(C)=CCN1CC2(CCN(Cc3c(F)cccc3F)CC2)CC1=O
ClpP1P2: -1.535
CoaBC: 6.651
PfKRS1: 4.746
TcHisRS: 8.442
Pks13 thioesterase: -5.916

compound: Cc1cnn(C2CCCN(C(=O)c3ccc(O)nc3)C2)c1 (stereo unspecified)
ClpP1P2: 0.4989
CoaBC: -1.161
PfKRS1: -0.3436
TcHisRS: 1.724
Pks13 thioesterase: -4.132

compound: Cc1nc(CNC(=O)N(CCCO)C2CCc3ccccc32)oc1C (stereo unspecified)
ClpP1P2: -14.41
CoaBC: 12.5
PfKRS1: -1.04
TcHisRS: 2.882
Pks13 thioesterase: -19.25

compound: CCN(CC)C(=O)c1ccn(COc2ccccc2)n1
ClpP1P2: 2.102
CoaBC: -2.557
PfKRS1: 3.09
TcHisRS: -0.5464
Pks13 thioesterase: -43.43

compound: Cc1nn(C)cc1CN1CCc2nc3sccc3c(=O)n2CC1
ClpP1P2: -20.55
CoaBC: 2.055
PfKRS1: -0.6687
TcHisRS: 5.429
Pks13 thioesterase: 0.5499

compound: O=C(C[S+]([O-])Cc1c(Cl)cccc1Cl)N1CCc2sccc2C1 (stereo unspecified)
ClpP1P2: -3.065
CoaBC: 14.66
PfKRS1: 15.66
TcHisRS: 4.762
Pks13 thioesterase: -17.65

compound: CC(C)c1nccn1Cc1cc(C(=O)NCC(F)(F)F)n[nH]1
ClpP1P2: -16.44
CoaBC: 2.036
PfKRS1: -1.425
TcHisRS: 2.41
Pks13 thioesterase: -7.018

compound: COc1cccc(-c2noc(-c3ccc(NCCCO)nc3)n2)c1OC
ClpP1P2: -7.326
CoaBC: 2.571
PfKRS1: 2.58
TcHisRS: 6.704
Pks13 thioesterase: 40.79

compound: COc1ccccc1[C@@H]1CN(CC2CCC2)C[C@H]1C(=O)O
ClpP1P2: 0.6077
CoaBC: 2.564
PfKRS1: 2.228
TcHisRS: 6.349
Pks13 thioesterase: -1.676

compound: CC(=O)Cc1c(C)nn(-c2cncc(C(N)=O)c2)c1C
ClpP1P2: -8.462
CoaBC: -1.394
PfKRS1: 7.777
TcHisRS: 4.741
Pks13 thioesterase: -31.81

compound: CC(=O)N(Cc1ncc(C)o1)C1CCN(CCNC2CCCCC2)C1 (stereo unspecified)
ClpP1P2: 10.69
CoaBC: -20.7
PfKRS1: 3.434
TcHisRS: 0.8475
Pks13 thioesterase: -12.2

compound: Cc1oc(CN(C)C(=O)c2ccc(Br)cc2)cc1C(=O)O
ClpP1P2: -7.882
CoaBC: 3.419
PfKRS1: -0.04134
TcHisRS: 0.5405
Pks13 thioesterase: -29.84

compound: COc1ccc(CN2C[C@@H]3CN(C(=O)[C@H]4CCCO4)C[C@@H]3C2=O)cc1
ClpP1P2: -0.3484
CoaBC: -1.673
PfKRS1: 4.208
TcHisRS: 1.942
Pks13 thioesterase: -15.52

compound: O=C(CCc1nc(Cl)n[nH]1)N1CCC2(CCCNC2=O)C1 (stereo unspecified)
ClpP1P2: -3.634
CoaBC: 2.941
PfKRS1: 4.348
TcHisRS: 3.571
Pks13 thioesterase: -13.74

compound: Cc1nc(S(=O)(=O)NCCC(=O)NCc2ccc(C#N)cc2)cn1C
ClpP1P2: -7.206
CoaBC: 1.768
PfKRS1: 12.5
TcHisRS: 5.172
Pks13 thioesterase: 3.593

compound: Cc1nc(O)cc(C2CCCN(C(=O)CN(C)c3ccccc3)C2)n1 (stereo unspecified)
ClpP1P2: 4.774
CoaBC: 11.57
PfKRS1: 0.7579
TcHisRS: 9.239

compound: CN(C)C1CCCN(C(=O)c2ccc3sc4c(c3c2)CCNC4=O)CC1 (stereo unspecified)
ClpP1P2: -7.271
CoaBC: 1.568
PfKRS1: -1.066
TcHisRS: -3.518
Pks13 thioesterase: -25.55

Some entries from above, unchanged:

| compound | ClpP1P2 | CoaBC | PfKRS1 | TcHisRS | Pks13 thioesterase |
|---|---|---|---|---|---|
| `Cn1cnc2c1CCN(CCOc1ccc(C#N)cc1)C2` | -21.94 | -3.636 | -0.8998 | 4.035 | -12.99 |
| `O=C(C[S+]([O-])Cc1c(Cl)cccc1Cl)N1CCc2sccc2C1` (stereo unspecified) | -3.065 | 14.66 | 15.66 | 4.762 | -17.65 |

Source: ChEMBL document CHEMBL3988442, “University of Dundee, Small-Polar-MMV Screening Library” (2021).